Earlier results on 1 molecule are cited in paper PMC6534257, “Leishmania infantum arginase: biochemical characterization and inhibition by naturally occurring phenolic substances” (Journal of Enzyme Inhibition and Medicinal Chemistry, 2019).

This data set relates to axenic amastigote forms of L. donovani. The arrangement: method as in PMID 16569852. The following applies: L. donovani axenic amastigotes vs L9 cells ref 36; cited from earlier work.

Take `COc1cc(-c2oc3cc(O)cc(O)c3c(=O)c2O)ccc1O` [Isorhamnetin, isorhamnetin]: the “SI (parasite versus myoblast lineage cells L9)” value was 10.7.
